Test results from the supplement of paper PMC10849652.
Some of the results follow.

Chains of the proteins cited; added tags and fusions are not shown. Lines headed by an entry give the natural chain unless they say otherwise; changes in a name come on top.
UniProt Q13889: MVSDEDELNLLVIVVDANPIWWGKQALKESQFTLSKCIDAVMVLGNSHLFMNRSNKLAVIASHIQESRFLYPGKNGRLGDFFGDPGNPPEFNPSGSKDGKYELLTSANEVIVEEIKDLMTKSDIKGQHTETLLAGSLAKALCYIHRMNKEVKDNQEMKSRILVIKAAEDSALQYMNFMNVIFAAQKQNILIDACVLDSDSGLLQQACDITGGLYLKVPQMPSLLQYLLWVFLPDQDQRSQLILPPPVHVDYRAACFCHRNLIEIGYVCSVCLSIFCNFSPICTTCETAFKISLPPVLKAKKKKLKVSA
UniProt Q86XA9: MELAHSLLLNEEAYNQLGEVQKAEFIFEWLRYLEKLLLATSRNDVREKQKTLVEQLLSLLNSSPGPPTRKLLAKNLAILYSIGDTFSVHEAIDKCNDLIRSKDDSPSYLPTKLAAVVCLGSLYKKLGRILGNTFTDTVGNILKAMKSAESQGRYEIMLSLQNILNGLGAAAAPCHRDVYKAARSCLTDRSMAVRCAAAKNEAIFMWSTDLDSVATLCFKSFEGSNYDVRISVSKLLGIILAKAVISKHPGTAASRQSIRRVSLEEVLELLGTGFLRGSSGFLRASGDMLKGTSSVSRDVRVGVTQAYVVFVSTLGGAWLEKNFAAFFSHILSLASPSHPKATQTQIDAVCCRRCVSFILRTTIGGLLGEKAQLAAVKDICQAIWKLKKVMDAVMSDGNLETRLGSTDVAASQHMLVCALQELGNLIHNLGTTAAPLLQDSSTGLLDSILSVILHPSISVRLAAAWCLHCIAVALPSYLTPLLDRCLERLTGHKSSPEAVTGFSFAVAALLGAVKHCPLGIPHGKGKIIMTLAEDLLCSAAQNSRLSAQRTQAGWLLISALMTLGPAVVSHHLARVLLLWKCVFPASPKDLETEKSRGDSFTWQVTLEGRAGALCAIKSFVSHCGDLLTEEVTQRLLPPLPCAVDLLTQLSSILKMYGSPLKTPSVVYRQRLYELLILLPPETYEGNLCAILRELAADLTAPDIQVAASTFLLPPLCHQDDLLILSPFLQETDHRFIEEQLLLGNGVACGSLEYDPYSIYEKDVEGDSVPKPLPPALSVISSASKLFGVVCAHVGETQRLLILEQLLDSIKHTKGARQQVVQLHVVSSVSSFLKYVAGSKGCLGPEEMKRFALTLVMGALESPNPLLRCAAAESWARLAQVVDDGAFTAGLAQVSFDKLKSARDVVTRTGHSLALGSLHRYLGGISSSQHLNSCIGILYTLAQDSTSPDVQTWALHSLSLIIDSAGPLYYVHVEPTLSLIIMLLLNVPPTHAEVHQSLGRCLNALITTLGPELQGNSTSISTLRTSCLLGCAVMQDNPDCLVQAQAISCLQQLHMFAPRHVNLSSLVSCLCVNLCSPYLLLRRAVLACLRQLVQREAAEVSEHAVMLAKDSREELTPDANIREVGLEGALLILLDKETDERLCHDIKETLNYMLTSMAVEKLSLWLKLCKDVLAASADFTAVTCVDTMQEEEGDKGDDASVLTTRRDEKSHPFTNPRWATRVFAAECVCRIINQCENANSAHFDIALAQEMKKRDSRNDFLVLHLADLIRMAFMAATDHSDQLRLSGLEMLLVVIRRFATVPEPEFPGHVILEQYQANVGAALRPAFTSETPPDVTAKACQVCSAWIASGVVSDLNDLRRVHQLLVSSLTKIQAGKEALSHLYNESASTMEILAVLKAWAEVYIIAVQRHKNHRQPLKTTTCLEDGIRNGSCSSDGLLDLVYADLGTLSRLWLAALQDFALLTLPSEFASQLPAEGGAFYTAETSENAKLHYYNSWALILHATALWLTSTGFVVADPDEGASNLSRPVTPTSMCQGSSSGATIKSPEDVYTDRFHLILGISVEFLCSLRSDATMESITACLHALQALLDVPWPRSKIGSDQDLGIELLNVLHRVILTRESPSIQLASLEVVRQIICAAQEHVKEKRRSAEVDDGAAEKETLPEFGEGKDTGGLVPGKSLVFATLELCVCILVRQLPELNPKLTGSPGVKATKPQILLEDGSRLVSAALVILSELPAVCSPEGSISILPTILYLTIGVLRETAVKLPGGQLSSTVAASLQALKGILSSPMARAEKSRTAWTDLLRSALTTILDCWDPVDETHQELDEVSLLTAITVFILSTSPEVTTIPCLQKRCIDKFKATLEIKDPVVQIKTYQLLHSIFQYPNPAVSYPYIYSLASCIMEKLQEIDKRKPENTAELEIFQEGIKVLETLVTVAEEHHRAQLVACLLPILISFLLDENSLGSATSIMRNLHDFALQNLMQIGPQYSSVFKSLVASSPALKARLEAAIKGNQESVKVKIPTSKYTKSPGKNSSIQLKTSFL
UniProt A4D1E9: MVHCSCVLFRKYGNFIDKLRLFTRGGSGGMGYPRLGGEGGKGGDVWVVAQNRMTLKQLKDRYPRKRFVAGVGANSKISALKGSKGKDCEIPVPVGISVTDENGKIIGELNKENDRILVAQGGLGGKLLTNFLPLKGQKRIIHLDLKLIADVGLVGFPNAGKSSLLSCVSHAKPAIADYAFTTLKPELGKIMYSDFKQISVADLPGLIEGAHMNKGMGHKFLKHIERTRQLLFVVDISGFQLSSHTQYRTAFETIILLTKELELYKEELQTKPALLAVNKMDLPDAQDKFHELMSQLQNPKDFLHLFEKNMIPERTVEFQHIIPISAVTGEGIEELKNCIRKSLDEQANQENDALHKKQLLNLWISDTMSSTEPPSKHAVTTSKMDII
UniProt Q9BXL5: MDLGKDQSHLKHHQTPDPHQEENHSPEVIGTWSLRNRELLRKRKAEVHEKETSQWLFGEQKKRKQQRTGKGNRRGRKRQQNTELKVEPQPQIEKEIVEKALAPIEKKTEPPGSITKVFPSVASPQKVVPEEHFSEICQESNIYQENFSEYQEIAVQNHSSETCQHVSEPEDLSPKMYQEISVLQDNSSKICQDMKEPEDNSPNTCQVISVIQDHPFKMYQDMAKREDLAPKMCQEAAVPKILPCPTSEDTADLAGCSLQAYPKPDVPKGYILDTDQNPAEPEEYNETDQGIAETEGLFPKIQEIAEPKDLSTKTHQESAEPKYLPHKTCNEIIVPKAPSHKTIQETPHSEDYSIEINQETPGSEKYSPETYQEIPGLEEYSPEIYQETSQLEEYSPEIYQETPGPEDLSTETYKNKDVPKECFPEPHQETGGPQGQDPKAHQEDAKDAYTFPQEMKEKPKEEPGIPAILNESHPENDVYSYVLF
UniProt Q9BX10: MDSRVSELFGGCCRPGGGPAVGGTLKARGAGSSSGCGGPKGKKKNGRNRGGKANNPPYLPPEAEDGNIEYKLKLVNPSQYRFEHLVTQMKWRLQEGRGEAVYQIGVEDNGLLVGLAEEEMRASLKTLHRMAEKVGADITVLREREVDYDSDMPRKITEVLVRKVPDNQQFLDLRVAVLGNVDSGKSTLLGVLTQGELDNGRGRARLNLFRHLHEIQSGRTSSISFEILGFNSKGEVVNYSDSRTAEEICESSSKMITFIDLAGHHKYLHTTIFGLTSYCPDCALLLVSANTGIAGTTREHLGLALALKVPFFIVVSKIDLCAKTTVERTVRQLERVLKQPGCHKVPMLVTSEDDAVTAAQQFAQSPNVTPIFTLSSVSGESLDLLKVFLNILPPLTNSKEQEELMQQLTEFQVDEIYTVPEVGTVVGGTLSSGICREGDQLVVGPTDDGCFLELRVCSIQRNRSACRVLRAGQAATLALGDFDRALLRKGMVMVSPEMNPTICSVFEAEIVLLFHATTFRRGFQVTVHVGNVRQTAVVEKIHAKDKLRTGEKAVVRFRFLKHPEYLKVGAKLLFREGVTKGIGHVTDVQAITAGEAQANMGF
UniProt P02100: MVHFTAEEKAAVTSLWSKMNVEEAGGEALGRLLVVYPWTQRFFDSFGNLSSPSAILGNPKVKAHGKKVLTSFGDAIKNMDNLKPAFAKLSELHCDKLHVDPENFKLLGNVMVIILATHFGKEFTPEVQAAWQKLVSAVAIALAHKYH
UniProt O00178: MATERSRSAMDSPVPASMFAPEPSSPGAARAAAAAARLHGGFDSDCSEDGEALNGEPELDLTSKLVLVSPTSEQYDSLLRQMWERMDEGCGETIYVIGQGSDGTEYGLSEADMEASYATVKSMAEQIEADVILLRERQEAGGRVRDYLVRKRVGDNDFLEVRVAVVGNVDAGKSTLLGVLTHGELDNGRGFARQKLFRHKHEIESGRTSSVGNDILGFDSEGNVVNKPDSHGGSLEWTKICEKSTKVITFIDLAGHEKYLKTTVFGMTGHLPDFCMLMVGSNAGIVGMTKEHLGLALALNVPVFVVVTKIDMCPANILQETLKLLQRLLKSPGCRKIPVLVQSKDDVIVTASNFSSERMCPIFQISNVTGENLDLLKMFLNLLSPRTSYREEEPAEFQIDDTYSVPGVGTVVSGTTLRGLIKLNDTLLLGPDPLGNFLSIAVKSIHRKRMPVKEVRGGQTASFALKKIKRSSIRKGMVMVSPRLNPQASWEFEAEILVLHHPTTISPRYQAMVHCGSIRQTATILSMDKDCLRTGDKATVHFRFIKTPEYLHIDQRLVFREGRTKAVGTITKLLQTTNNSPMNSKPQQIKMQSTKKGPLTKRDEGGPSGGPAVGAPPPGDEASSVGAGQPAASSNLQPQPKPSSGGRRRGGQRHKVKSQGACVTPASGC
UniProt Q9UKN8: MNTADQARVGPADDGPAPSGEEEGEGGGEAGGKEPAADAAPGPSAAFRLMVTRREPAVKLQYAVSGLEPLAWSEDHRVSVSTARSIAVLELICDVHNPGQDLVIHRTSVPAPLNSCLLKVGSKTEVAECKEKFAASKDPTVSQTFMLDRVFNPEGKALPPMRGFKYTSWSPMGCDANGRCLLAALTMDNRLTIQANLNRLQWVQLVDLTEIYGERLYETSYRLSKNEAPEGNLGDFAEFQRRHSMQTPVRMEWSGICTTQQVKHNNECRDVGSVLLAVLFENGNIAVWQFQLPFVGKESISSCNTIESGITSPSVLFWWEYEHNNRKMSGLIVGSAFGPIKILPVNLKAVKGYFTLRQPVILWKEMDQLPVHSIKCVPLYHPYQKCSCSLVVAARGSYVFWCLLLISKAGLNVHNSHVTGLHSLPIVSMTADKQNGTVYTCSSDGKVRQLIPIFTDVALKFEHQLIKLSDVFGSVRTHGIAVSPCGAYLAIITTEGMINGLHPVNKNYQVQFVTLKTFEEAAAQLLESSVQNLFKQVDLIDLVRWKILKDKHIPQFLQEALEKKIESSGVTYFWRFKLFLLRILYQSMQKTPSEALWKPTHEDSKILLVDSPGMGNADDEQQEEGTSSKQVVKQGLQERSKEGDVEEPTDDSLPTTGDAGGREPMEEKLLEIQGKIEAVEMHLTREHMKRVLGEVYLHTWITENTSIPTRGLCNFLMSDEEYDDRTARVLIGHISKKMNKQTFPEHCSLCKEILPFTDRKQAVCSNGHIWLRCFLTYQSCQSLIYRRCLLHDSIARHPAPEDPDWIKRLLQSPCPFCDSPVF
UniProt Q9Y450, whole entry, looked up: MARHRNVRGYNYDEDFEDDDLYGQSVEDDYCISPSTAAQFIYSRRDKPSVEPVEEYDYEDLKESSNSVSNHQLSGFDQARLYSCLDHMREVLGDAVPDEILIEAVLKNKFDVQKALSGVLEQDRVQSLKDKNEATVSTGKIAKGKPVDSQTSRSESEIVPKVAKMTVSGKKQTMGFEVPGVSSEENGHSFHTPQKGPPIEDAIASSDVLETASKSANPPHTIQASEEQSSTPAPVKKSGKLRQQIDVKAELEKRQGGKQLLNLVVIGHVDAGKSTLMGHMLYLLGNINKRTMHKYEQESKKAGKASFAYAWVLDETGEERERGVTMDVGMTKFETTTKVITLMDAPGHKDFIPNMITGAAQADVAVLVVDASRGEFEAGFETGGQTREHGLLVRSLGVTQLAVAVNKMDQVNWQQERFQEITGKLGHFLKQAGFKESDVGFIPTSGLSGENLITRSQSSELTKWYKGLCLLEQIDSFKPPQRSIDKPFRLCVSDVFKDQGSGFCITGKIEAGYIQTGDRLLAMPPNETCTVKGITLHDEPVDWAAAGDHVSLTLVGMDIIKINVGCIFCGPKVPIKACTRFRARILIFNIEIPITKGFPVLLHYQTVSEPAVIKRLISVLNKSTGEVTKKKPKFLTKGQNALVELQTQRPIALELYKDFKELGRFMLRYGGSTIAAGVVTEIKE
UniProt P16402, whole entry, looked up: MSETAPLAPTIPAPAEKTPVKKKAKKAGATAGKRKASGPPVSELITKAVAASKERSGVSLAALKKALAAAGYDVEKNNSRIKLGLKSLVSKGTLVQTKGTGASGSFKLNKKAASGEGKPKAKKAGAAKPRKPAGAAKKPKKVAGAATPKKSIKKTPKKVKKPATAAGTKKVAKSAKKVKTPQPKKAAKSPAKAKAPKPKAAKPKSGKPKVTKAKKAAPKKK
UniProt P09105: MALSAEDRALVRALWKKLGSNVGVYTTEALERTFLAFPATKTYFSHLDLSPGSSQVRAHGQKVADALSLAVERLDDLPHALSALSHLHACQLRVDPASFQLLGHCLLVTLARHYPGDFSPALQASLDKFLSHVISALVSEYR

Key:
Assay in all cases: log2 fold change, soluble protein after heating vs DMSO (PISA); higher = thermal stabilisation; K562 cells, 10 uM, 30 min; active = over 0.2 and 3.5 SD of the protein, either way, in both replicates (recomputed)
[1] = compound: NC(=O)Nc1cc(-c2cccc(F)c2)sc1C(=O)N[C@H]1CCCNC1
Method in brief: (§1)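 Aliquots of K562 cells (2×10^6 cells/mL) treated with 10 μM compound for 30 min were heated for 3 min over 48°C-58°C. After pooling and extraction in PBS with 0.5% NP-40 at 4°C, soluble protein from a 21,000xg, 90 min spin was quantified by TMTpro 16plex LC-MS/MS with channel sums equalised. Thermal stability is expressed against control samples, from duplicates, as a log2 fold change.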

[2] = compound: NC(=O)c1cnc(N[C@@H]2CCCC[C@@H]2N)nc1Nc1cccc(-n2nccn2)c1
Method in brief: as §1

[3] = compound: NC1(c2ccc(-c3nc4ccn5c(=O)[nH]nc5c4cc3-c3ccccc3)cc2)CCC1
Method in brief: as §1

[4] = compound: NCC(=O)Nc1ccc(-n2nc(C(F)(F)F)cc2-c2ccc3c(ccc4ccccc43)c2)cc1
Method in brief: as §1

entinostat = compound: Nc1ccccc1NC(=O)c1ccc(CNC(=O)OCc2cccnc2)cc1 [entinostat]
Method in brief: as §1

vorinostat = compound: O=C(CCCCCCC(=O)Nc1ccccc1)NO [vorinostat]
Method in brief: as §1

citarinostat = compound: O=C(CCCCCCNC(=O)c1cnc(N(c2ccccc2)c2ccccc2Cl)nc1)NO [citarinostat]
Method in brief: as §1

silmitasertib = compound: O=C(O)c1ccc2c(c1)nc(Nc1cccc(Cl)c1)c1ccncc12 [silmitasertib]
Method in brief: as §1

[5] = compound: O=C1NC(=O)C(c2cnc3ccccn23)=C1c1cn2c3c(cc(F)cc13)CN(C(=O)N1CCCCC1)CC2
Method in brief: as §1

[6] = compound: c1cc(OCCN2CCCCC2)cc(-c2n[nH]c3ccc(-c4nnc[nH]4)cc23)c1
Method in brief: as §1

Target	log2 fold change [1]	log2 fold change [2]	log2 fold change [3]	log2 fold change [4]	log2 fold change (entinostat)	log2 fold change (vorinostat)	log2 fold change (citarinostat)	log2 fold change (silmitasertib)	log2 fold change [5]	log2 fold change [6]
GTF2H3 (UniProt Q13889)	inactive: -0.133	inactive: -0.152	inactive: 0.12	inactive: -0.063	inactive: 0.141	inactive: 0.037	inactive: -0.049	inactive: -0.004	inactive: -0.041	inactive: -0.015
H4C1 (UniProt P62805)	inactive: 0.015	inactive: 0.294	inactive: 0.527	inactive: -0.054	inactive: 0.095	inactive: 0.522	inactive: -0.059	inactive: -0.089	inactive: 0.06	inactive: -0.009
HEATR5A (UniProt Q86XA9)	inactive: -0.069	inactive: -0.121	inactive: -0.225	inactive: -0.135	inactive: 0.023	inactive: 0.114	inactive: 0.021	inactive: 0.165	inactive: -0.006	inactive: -0.128
GYS1 (UniProt P13807)	inactive: -0.05	inactive: -0.027	inactive: 0.05	inactive: 0.091	inactive: -0.077	inactive: -0.125	inactive: -0.103	inactive: 0.05	inactive: -0.002	inactive: -0.301
GTPBP10 (UniProt A4D1E9)	inactive: 0.013	inactive: -0.107	inactive: 0.066	inactive: 0.046	inactive: 0.038	inactive: -0.015	inactive: -0.032	inactive: -0.018	inactive: -0.041	inactive: -0.152
GSTO1 (UniProt P78417)	inactive: -0.015	inactive: -0.002	inactive: 0.022	inactive: 0.001	inactive: -0.022	inactive: 0.058	inactive: 0.039	inactive: -0.047	inactive: 0.018	inactive: -0.022
HEMGN (UniProt Q9BXL5)	inactive: -0.023	inactive: -0.045	inactive: 0.071	inactive: 0.013	inactive: -0.028	inactive: -0.044	inactive: -0.046	inactive: -0.021	inactive: 0.015	inactive: -0.032
HDDC3 (UniProt Q8N4P3)	inactive: 0.026	inactive: -0.068	inactive: -0.005	inactive: -0.033	inactive: -0.006	inactive: 0.069	inactive: -0.018	inactive: 0.003	inactive: -0.093	inactive: -0.049
HACL1 (UniProt Q9UJ83)	inactive: 0.084	inactive: 0.005	inactive: -0.037	inactive: 0.06	inactive: 0.027	inactive: 0	inactive: 0.035	inactive: 0	inactive: 0.054	inactive: 0.01
H2AFX (UniProt P16104)	inactive: 0.054	inactive: 0.245	inactive: 0.441	inactive: 0.041	inactive: 0.132	inactive: 0.216	inactive: -0.035	inactive: 0.08	inactive: 0.077	inactive: -0.083
GTPBP2 (UniProt Q9BX10)	inactive: 0.027	inactive: 0.012	inactive: -0.047	inactive: -0.072	inactive: 0.093	inactive: 0.17	inactive: -0.025	inactive: 0.025	inactive: 0.071	inactive: -0.022
GTSE1 (UniProt Q9NYZ3)	inactive: 0.158	inactive: 0.038	inactive: -0.003	inactive: 0.029	inactive: -0.052	inactive: 0.093	inactive: 0.179	inactive: 0.024	inactive: 0.228	inactive: 0.037
HADHA (UniProt P40939)	inactive: -0.035	inactive: 0.033	inactive: 0.131	inactive: 0.125	inactive: 0.045	inactive: -0.059	inactive: 0.018	inactive: -0.1	active: 1.01	inactive: -0.007
HBE1 (UniProt P02100)	inactive: -0.024	inactive: -0.017	inactive: 0.043	inactive: 0.012	inactive: 0.059	inactive: -0.113	inactive: 0.002	inactive: -0.027	inactive: -0.043	inactive: -0.01
HBD (UniProt P02042)	inactive: -0.08	inactive: 1.09	inactive: 0.014	inactive: 0.013	inactive: 0.043	inactive: -0.118	inactive: -0.027	inactive: 0.016	inactive: -0.095	inactive: 0.015
GSK3B isoform 2 (UniProt P49841)	inactive: -0.027	inactive: -0.06	inactive: -0.055	inactive: -0.028	inactive: 0.005	inactive: 0.023	inactive: 0.047	inactive: 0.012	active: 0.29	
GTF3A (UniProt Q92664)	inactive: -0.04	inactive: -0.095	inactive: 0.046	inactive: -0.098	inactive: -0.013	inactive: 0.026	inactive: 0.06	inactive: 0.043	inactive: 0.011	inactive: -0.072
GTF2A2 (UniProt P52657)	inactive: 0.023	inactive: -0.028	inactive: -0.038	inactive: -0.008	inactive: 0.03	inactive: -0.044	inactive: 0.058	inactive: -0.008	inactive: -0.014	inactive: 0
HDLBP (UniProt Q00341)	inactive: 0.105	inactive: 0.001	inactive: 0.201	inactive: 0.048	inactive: 0.086	inactive: 0.075	inactive: -0.045	inactive: 0.228	inactive: 0.396	inactive: -0.173
GSTZ1 (UniProt G3V4T6)	inactive: -0.046	inactive: 0.034	inactive: -0.076	inactive: -0.037	inactive: 0.024	inactive: 0.002	inactive: 0.004	inactive: -0.02	inactive: -0.004	inactive: -0.034
GTPBP1 (UniProt O00178)	inactive: -0.011	inactive: 0.048	inactive: -0.017	inactive: 0.004	inactive: -0.008	inactive: 0.031	inactive: 0.031	inactive: -0.002	inactive: -0.013	inactive: -0.092
GTF3C4 (UniProt Q9UKN8)	inactive: -0.015	inactive: -0.012	inactive: -0.077	inactive: -0.04	inactive: 0.024	inactive: -0.103	inactive: 0.04	inactive: 0.03	inactive: -0.013	inactive: -0.019
HADHB (UniProt P55084)	inactive: -0.079	inactive: 0.021	inactive: 0.104	inactive: 0.078	inactive: 0.014	inactive: 0	inactive: 0.037	inactive: -0.115	active: 0.716	inactive: -0.056
HEXB (UniProt P07686)	inactive: 0.003	inactive: -0.051	inactive: -0.145	inactive: -0.034	inactive: 0.004	inactive: -0.042	inactive: 0.033	inactive: 0.007	inactive: -0.034	inactive: -0.003
HBS1L isoform 2 (UniProt Q9Y450)	inactive: -0.082	inactive: -0.023	inactive: -0.175	inactive: -0.204	inactive: 0.063	inactive: 0.069	inactive: 0.177	inactive: 0.02	inactive: 0.043	inactive: -0.017
H1-3 (UniProt P16402)	inactive: 0.103	inactive: 0.136	inactive: 0.261	inactive: 0.187	inactive: -0.004	inactive: 0.119	inactive: -0.099	inactive: 0.025	inactive: 0.154	inactive: -0.112
HBQ1 (UniProt P09105)	inactive: 0.058	inactive: -0.048	inactive: -0.043	inactive: 0.006	inactive: 0.014	inactive: -0.05	inactive: 0.032	inactive: -0.047	inactive: -0.119	inactive: 0.021
GYG1 (UniProt P46976)	inactive: 0.012	inactive: -0.017	inactive: 0.075	inactive: 0.134	inactive: -0.019	inactive: -0.056	inactive: -0.011	inactive: 0.049	inactive: 0.037	inactive: -0.057
H1FX (UniProt Q92522)	inactive: 0.248	inactive: 0.165	inactive: 0.153	inactive: 0.118	inactive: -0.072	inactive: 0	inactive: -0.122	inactive: 0.078	inactive: 0.227	inactive: -0.12
H1-2 (UniProt P16403)	inactive: 0.079	inactive: 0.072	inactive: 0.286	inactive: 0.127	inactive: 0.036	inactive: 0.05	inactive: -0.124	inactive: 0.083	inactive: 0.195	inactive: -0.196

Copied from the results shown for reference:
Target	log2 fold change [1]	log2 fold change [2]	log2 fold change [3]	log2 fold change [4]	log2 fold change (entinostat)	log2 fold change (vorinostat)	log2 fold change (citarinostat)	log2 fold change (silmitasertib)	log2 fold change [5]	log2 fold change [6]
H1FX (UniProt Q92522)	inactive: 0.248	inactive: 0.165	inactive: 0.153	inactive: 0.118	inactive: -0.072	inactive: 0	inactive: -0.122	inactive: 0.078	inactive: 0.227	inactive: -0.12
H1-2 (UniProt P16403)	inactive: 0.079	inactive: 0.072	inactive: 0.286	inactive: 0.127	inactive: 0.036	inactive: 0.05	inactive: -0.124	inactive: 0.083	inactive: 0.195	inactive: -0.196
